# Measurements reported in the supplement of paper PMC8728848.
# The other results are listed elsewhere or left out.
# Legend:
# Assay in all cases: glycan array binding signal (z-score within array); higher = stronger binding
# Details in all cases: glycan notation: IUPAC condensed, linker removed
# Gal(a1-2)Gal = molecular target: Gal(a1-2)Gal
# Outline: (§1)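 Negative Z-scores can be read as non-binding. The Z-score is calculated within each array and then averaged across arrays of one protein sequence at different concentrations or buffers and across linkers. Arrays, 3228 in all, were curated from the Consortium for Functional Glycomics database and kept only where the protein sequence was available.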
# Gal(a1-3)Gal = molecular target: Gal(a1-3)Gal
# Outline: as §1
# Gal(a1-3)Gal(b1-3)GlcNAc = molecular target: Gal(a1-3)Gal(b1-3)GlcNAc
# Outline: as §1
# Gal(a1-3)Gal(b1-4)Glc = molecular target: Gal(a1-3)Gal(b1-4)Glc
# Outline: as §1
# Gal(a1-3)Gal(b1-4)GlcNAc = molecular target: Gal(a1-3)Gal(b1-4)GlcNAc
# Outline: as §1
# [1] = molecular target: Gal(a1-3)Gal(b1-4)[Fuc(a1-3)]GlcNAc
# Outline: as §1
# [2] = molecular target: Gal(a1-3)Gal(b1-4)[Fuc(a1-3)]GlcNAc(b1-2)Man(a1-3)[Gal(a1-3)Gal(b1-4)[Fuc(a1-3)]GlcNAc(b1-2)Man(a1-6)]Man(b1-4)GlcNAc(b1-4)GlcNAc
# Outline: as §1
# Gal(a1-3)GalNAc = molecular target: Gal(a1-3)GalNAc
# Outline: as §1
# [3] = molecular target: Gal(a1-3)[Gal(a1-4)]Gal(b1-4)GlcNAc
# Outline: as §1
# Gal(a1-4)Gal(b1-4)Glc = molecular target: Gal(a1-4)Gal(b1-4)Glc
# Outline: as §1
# Gal(a1-4)Gal(b1-4)GlcNAc = molecular target: Gal(a1-4)Gal(b1-4)GlcNAc
# Outline: as §1
# [4] = molecular target: Gal(a1-4)Gal(b1-4)GlcNAc(b1-3)Gal(b1-4)Glc
# Outline: as §1
# Gal(a1-4)GlcNAc = molecular target: Gal(a1-4)GlcNAc
# Outline: as §1
# Gal(a1-6)Glc = molecular target: Gal(a1-6)Glc
# Outline: as §1
# Gal(b1-2)Gal = molecular target: Gal(b1-2)Gal
# Outline: as §1
# Gal(b1-3)Gal = molecular target: Gal(b1-3)Gal
# Outline: as §1
# Gal(b1-3)Gal(b1-4)GlcNAc = molecular target: Gal(b1-3)Gal(b1-4)GlcNAc
# Outline: as §1
# [5] = molecular target: Gal(b1-3)Gal(b1-4)GlcNAc(b1-2)Man(a1-3)[Gal(b1-3)Gal(b1-4)GlcNAc(b1-2)Man(a1-6)]Man(b1-4)GlcNAc(b1-4)GlcNAc
# Outline: as §1
# Gal(b1-3)GalNAc = molecular target: Gal(b1-3)GalNAc
# Outline: as §1
# [6] = molecular target: Gal(b1-3)GalNAc(a1-3)[Fuc(a1-2)]Gal(b1-4)Glc
# Outline: as §1
# [7] = molecular target: Gal(b1-3)GalNAc(a1-3)[Fuc(a1-2)]Gal(b1-4)GlcNAc
# Outline: as §1
# [8] = molecular target: Gal(b1-3)GalNAc(b1-3)Gal(a1-4)Gal(b1-4)Glc
# Outline: as §1
# [9] = molecular target: Gal(b1-3)GalNAc(b1-4)Gal(b1-4)Glc
# Outline: as §1
# [10] = molecular target: Gal(b1-3)GalNAc(b1-4)[Neu5Ac(a2-3)]Gal(b1-4)Glc
# Outline: as §1
# Gal(b1-3)GlcNAc = molecular target: Gal(b1-3)GlcNAc
# Outline: as §1
# [11] = molecular target: Gal(b1-3)GlcNAc(b1-2)Man(a1-3)[Gal(b1-3)GlcNAc(b1-2)Man(a1-6)]Man(b1-4)GlcNAc(b1-4)GlcNAc
# Outline: as §1
# [12] = molecular target: Gal(b1-3)GlcNAc(b1-2)Man(a1-3)[Gal(b1-3)GlcNAc(b1-2)Man(a1-6)]Man(b1-4)GlcNAc(b1-4)[Fuc(a1-6)]GlcNAc
# Outline: as §1
# [13] = molecular target: Gal(b1-3)GlcNAc(b1-3)Gal(b1-3)GlcNAc
# Outline: as §1
# [14] = molecular target: Gal(b1-3)GlcNAc(b1-3)Gal(b1-4)Glc
# Outline: as §1
# [15] = molecular target: Gal(b1-3)GlcNAc(b1-3)Gal(b1-4)GlcNAc
# Outline: as §1
# [16] = molecular target: Gal(b1-3)[Fuc(a1-4)]GlcNAc
# Outline: as §1
# [17] = molecular target: Gal(b1-3)[Fuc(a1-4)]GlcNAc(b1-2)Man(a1-3)[Gal(b1-3)[Fuc(a1-4)]GlcNAc(b1-2)Man(a1-6)]Man(b1-4)GlcNAc(b1-4)GlcNAc
# Outline: as §1
# [18] = molecular target: Gal(b1-3)[Fuc(a1-4)]GlcNAc(b1-2)Man(a1-3)[Gal(b1-3)[Fuc(a1-4)]GlcNAc(b1-2)Man(a1-6)]Man(b1-4)GlcNAc(b1-4)[Fuc(a1-6)]GlcNAc
# Outline: as §1
# [19] = molecular target: Gal(b1-3)[Fuc(a1-4)]GlcNAc(b1-3)Gal(b1-3)[Fuc(a1-4)]GlcNAc
# Outline: as §1
# [20] = molecular target: Gal(b1-3)[Fuc(a1-4)]GlcNAc(b1-3)Gal(b1-4)GlcNAc
# Outline: as §1
# [21] = molecular target: Gal(b1-3)[Fuc(a1-4)]GlcNAc(b1-3)Gal(b1-4)[Fuc(a1-3)]GlcNAc
# Outline: as §1
# [22] = molecular target: Gal(b1-3)[GlcNAc(b1-6)]GalNAc
# Outline: as §1
binder,measurement,setting,value
"4F2hc (Homo sapiens), P08195 (protein) WWHTGALYRIGDLQAFQGHGAGNLAGLKGRLDYLSSLKVKGLVLGPIHKNQKDDVAQTDLLQIDPNFGSKEDFDSLLQSAKKKSIRVILDLTPNYRGENSWFSTQVDTVATKVKDALEFWLQAGVDGFQVRDIENLKDASSFLAEWQNITKGFSEDRLLIAGTNSSDLQQILSLLESNKDLLLTSSYLSDSGSTGEHTKSLVTQYLNATGNRWCSWSLSQARLLTSFLPAQLLRLYQLMLFTLPGTPVFSYGDEIGLDAAALPGQPMEAPVMLWDESSFPDIPGAVSANMTVKGQSEDPGSLLSLFRRLSDQRSKERSLLHGDFHAFSAGPGLFSYIRHWDQNERFLVVLNFGDVGLSAGLQASDLPASASLPAKADLLLSTQPGREEGSPLELERLKLEPHEGLLLRFPYAA",glycan array binding signal (z-score),Gal(a1-2)Gal,0.638
same,glycan array binding signal (z-score),Gal(a1-3)Gal,0.67
same,glycan array binding signal (z-score),Gal(a1-3)Gal(b1-3)GlcNAc,-1.03
same,glycan array binding signal (z-score),Gal(a1-3)Gal(b1-4)Glc,0.34
same,glycan array binding signal (z-score),Gal(a1-3)Gal(b1-4)GlcNAc,0.442
same,glycan array binding signal (z-score),[1],-1.16
same,glycan array binding signal (z-score),[2],-0.107
same,glycan array binding signal (z-score),Gal(a1-3)GalNAc,-0.267
same,glycan array binding signal (z-score),[3],-0.32
same,glycan array binding signal (z-score),Gal(a1-4)Gal(b1-4)Glc,-0.504
same,glycan array binding signal (z-score),Gal(a1-4)Gal(b1-4)GlcNAc,-0.258
same,glycan array binding signal (z-score),[4],-0.618
same,glycan array binding signal (z-score),Gal(a1-4)GlcNAc,-0.668
same,glycan array binding signal (z-score),Gal(a1-6)Glc,-0.645
same,glycan array binding signal (z-score),Gal(b1-2)Gal,0.091
same,glycan array binding signal (z-score),Gal(b1-3)Gal,2.32
same,glycan array binding signal (z-score),Gal(b1-3)Gal(b1-4)GlcNAc,0.2
same,glycan array binding signal (z-score),[5],-0.486
same,glycan array binding signal (z-score),Gal(b1-3)GalNAc,-0.548
same,glycan array binding signal (z-score),[6],-0.658
same,glycan array binding signal (z-score),[7],-0.507
same,glycan array binding signal (z-score),[8],0.03
same,glycan array binding signal (z-score),[9],-1.07
same,glycan array binding signal (z-score),[10],0.252
same,glycan array binding signal (z-score),Gal(b1-3)GlcNAc,0.637
same,glycan array binding signal (z-score),[11],3.66
same,glycan array binding signal (z-score),[12],-1.06
same,glycan array binding signal (z-score),[13],0.209
same,glycan array binding signal (z-score),[14],2.15
same,glycan array binding signal (z-score),[15],0.959
same,glycan array binding signal (z-score),[16],0.971
same,glycan array binding signal (z-score),[17],0.766
same,glycan array binding signal (z-score),[18],-0.531
same,glycan array binding signal (z-score),[19],1.47
same,glycan array binding signal (z-score),[20],-0.798
same,glycan array binding signal (z-score),[21],-1.11
same,glycan array binding signal (z-score),[22],-0.662

# Quoted at random: 2 entries already listed
binder,measurement,setting,value
"4F2hc (Homo sapiens), P08195 (protein) WWHTGALYRIGDLQAFQGHGAGNLAGLKGRLDYLSSLKVKGLVLGPIHKNQKDDVAQTDLLQIDPNFGSKEDFDSLLQSAKKKSIRVILDLTPNYRGENSWFSTQVDTVATKVKDALEFWLQAGVDGFQVRDIENLKDASSFLAEWQNITKGFSEDRLLIAGTNSSDLQQILSLLESNKDLLLTSSYLSDSGSTGEHTKSLVTQYLNATGNRWCSWSLSQARLLTSFLPAQLLRLYQLMLFTLPGTPVFSYGDEIGLDAAALPGQPMEAPVMLWDESSFPDIPGAVSANMTVKGQSEDPGSLLSLFRRLSDQRSKERSLLHGDFHAFSAGPGLFSYIRHWDQNERFLVVLNFGDVGLSAGLQASDLPASASLPAKADLLLSTQPGREEGSPLELERLKLEPHEGLLLRFPYAA",glycan array binding signal (z-score),Gal(b1-3)Gal(b1-4)GlcNAc,0.2
same,glycan array binding signal (z-score),[12],-1.06
